Assay results from the supplement of paper PMC8728848.
Some of the results follow.

Tests used:
Assay in all cases: glycan array binding signal (z-score within array); higher = stronger binding
Details in all cases: glycan notation: IUPAC condensed, linker removed
[1] = target: Neu5Ac(a2-3)Gal(b1-3)[Fuc(a1-4)]GlcNAc
Outline: (§1)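 The Consortium for Functional Glycomics database supplied 3228 glycan arrays, of which those lacking an available protein sequence were dropped. The binding signal, a within-array Z-score, was averaged across arrays of the same protein sequence and across linkers. Negative scores can be read as non-binding.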

[2] = target: Neu5Ac(a2-3)Gal(b1-3)[Fuc(a1-4)]GlcNAc(b1-3)Gal(b1-3)[Fuc(a1-4)]GlcNAc
Outline: as §1

[3] = target: Neu5Ac(a2-3)Gal(b1-3)[Fuc(a1-4)]GlcNAc(b1-3)Gal(b1-4)[Fuc(a1-3)]GlcNAc
Outline: as §1

[4] = target: Neu5Ac(a2-3)Gal(b1-3)[GlcNAc(b1-6)]GalNAc
Outline: as §1

[5] = target: Neu5Ac(a2-3)Gal(b1-3)[Neu5Ac(a2-6)]GalNAc
Outline: as §1

[6] = target: Neu5Ac(a2-3)Gal(b1-3)[Neu5Ac(a2-6)]GlcNAc(b1-3)[Fuc(a1-3)[Gal(b1-4)]GlcNAc(b1-6)]Gal(b1-4)Glc
Outline: as §1

[7] = target: Neu5Ac(a2-3)Gal(b1-3)]Neu5Ac(a2-3)Gal(b1-4)]GlcNAc
Outline: as §1

Neu5Ac(a2-3)Gal(b1-4)Glc = target: Neu5Ac(a2-3)Gal(b1-4)Glc
Outline: as §1

[8] = target: Neu5Ac(a2-3)Gal(b1-4)GlcNAc
Outline: as §1

[9] = target: Neu5Ac(a2-3)Gal(b1-4)GlcNAc(b1-2)Man
Outline: as §1

[10] = target: Neu5Ac(a2-3)Gal(b1-4)GlcNAc(b1-2)Man(a1-3)[GlcNAc(b1-4)][Neu5Ac(a2-3)Gal(b1-4)GlcNAc(b1-2)Man(a1-6)]Man(b1-4)GlcNAc(b1-4)GlcNAc
Outline: as §1

[11] = target: Neu5Ac(a2-3)Gal(b1-4)GlcNAc(b1-2)Man(a1-3)[Neu5Ac(a2-3)Gal(b1-4)GlcNAc(b1-2)Man(a1-6)]Man(b1-4)GlcNAc(b1-4)GlcNAc
Outline: as §1

[12] = target: Neu5Ac(a2-3)Gal(b1-4)GlcNAc(b1-2)Man(a1-3)[Neu5Ac(a2-3)Gal(b1-4)GlcNAc(b1-2)Man(a1-6)]Man(b1-4)GlcNAc(b1-4)[Fuc(a1-6)]GlcNAc
Outline: as §1

[13] = target: Neu5Ac(a2-3)Gal(b1-4)GlcNAc(b1-2)Man(a1-3)[Neu5Ac(a2-6)Gal(b1-4)GlcNAc(b1-2)Man(a1-6)]Man(b1-4)GlcNAc(b1-4)GlcNAc
Outline: as §1

[14] = target: Neu5Ac(a2-3)Gal(b1-4)GlcNAc(b1-2)[Neu5Ac(a2-3)Gal(b1-4)GlcNAc(b1-4)]Man(a1-3)[GlcNAc(b1-4)][Neu5Ac(a2-3)Gal(b1-4)GlcNAc(b1-2)[Neu5Ac(a2-3)Gal(b1-4)GlcNAc(b1-6)]Man(a1-6)]Man(b1-4)GlcNAc(b1-4)GlcNAc
Outline: as §1

[15] = target: Neu5Ac(a2-3)Gal(b1-4)GlcNAc(b1-2)[Neu5Ac(a2-3)Gal(b1-4)GlcNAc(b1-4)]Man(a1-3)[GlcNAc(b1-4)][Neu5Ac(a2-3)Gal(b1-4)GlcNAc(b1-4)Man(a1-6)]Man(b1-4)GlcNAc(b1-4)GlcNAc
Outline: as §1

[16] = target: Neu5Ac(a2-3)Gal(b1-4)GlcNAc(b1-2)[Neu5Ac(a2-3)Gal(b1-4)GlcNAc(b1-6)]Man(a1-6)[Neu5Ac(a2-3)Gal(b1-4)GlcNAc(b1-2)Man(a1-3)]Man(b1-4)GlcNAc(b1-4)GlcNAc
Outline: as §1

[17] = target: Neu5Ac(a2-3)Gal(b1-4)GlcNAc(b1-2)[Neu5Ac(a2-3)Gal(b1-4)GlcNAc(b1-6)]Man(a1-6)[Neu5Ac(a2-3)Gal(b1-4)GlcNAc(b1-2)Man(a1-3)][GlcNAc(b1-4)]Man(b1-4)GlcNAc(b1-4)GlcNAc
Outline: as §1

[18] = target: Neu5Ac(a2-3)Gal(b1-4)GlcNAc(b1-3)Gal
Outline: as §1

[19] = target: Neu5Ac(a2-3)Gal(b1-4)GlcNAc(b1-3)Gal(b1-3)GlcNAc
Outline: as §1

[20] = target: Neu5Ac(a2-3)Gal(b1-4)GlcNAc(b1-3)Gal(b1-4)GlcNAc
Outline: as §1

[21] = target: Neu5Ac(a2-3)Gal(b1-4)GlcNAc(b1-3)Gal(b1-4)GlcNAc(b1-2)Man(a1-3)[Neu5Ac(a2-3)Gal(b1-4)GlcNAc(b1-3)Gal(b1-4)GlcNAc(b1-2)Man(a1-6)]Man(b1-4)GlcNAc(b1-4)GlcNAc
Outline: as §1

[22] = target: Neu5Ac(a2-3)Gal(b1-4)GlcNAc(b1-3)Gal(b1-4)GlcNAc(b1-3)Gal(b1-4)GlcNAc
Outline: as §1

[23] = target: Neu5Ac(a2-3)Gal(b1-4)GlcNAc(b1-3)Gal(b1-4)GlcNAc(b1-3)Gal(b1-4)GlcNAc(b1-2)Man(a1-3)[Neu5Ac(a2-3)Gal(b1-4)GlcNAc(b1-3)Gal(b1-4)GlcNAc(b1-3)Gal(b1-4)GlcNAc(b1-2)Man(a1-6)]GalNAc
Outline: as §1

[24] = target: Neu5Ac(a2-3)Gal(b1-4)GlcNAc(b1-3)Gal(b1-4)GlcNAc(b1-3)GalNAc
Outline: as §1

[25] = target: Neu5Ac(a2-3)Gal(b1-4)GlcNAc(b1-3)Gal(b1-4)GlcNAc(b1-3)[Neu5Ac(a2-3)Gal(b1-4)GlcNAc(b1-3)Gal(b1-4)GlcNAc(b1-6)]GalNAc
Outline: as §1

[26] = target: Neu5Ac(a2-3)Gal(b1-4)GlcNAc(b1-3)Gal(b1-4)GlcNAc(b1-6)[Gal(b1-3)]GalNAc
Outline: as §1

[27] = target: Neu5Ac(a2-3)Gal(b1-4)GlcNAc(b1-3)Gal(b1-4)[Fuc(a1-3)]GlcNAc
Outline: as §1

[28] = target: Neu5Ac(a2-3)Gal(b1-4)GlcNAc(b1-3)GalNAc
Outline: as §1

[29] = target: Neu5Ac(a2-3)Gal(b1-4)GlcNAc(b1-3)[Neu5Ac(a2-3)Gal(b1-4)GlcNAc(b1-6)]GalNAc
Outline: as §1

[30] = target: Neu5Ac(a2-3)Gal(b1-4)GlcNAc(b1-6)GalNAc
Outline: as §1

[31] = target: Neu5Ac(a2-3)Gal(b1-4)GlcNAc(b1-6)[Gal(b1-3)]GalNAc
Outline: as §1

[32] = target: Neu5Ac(a2-3)Gal(b1-4)GlcNAc(b1-6)[Neu5Ac(a2-3)Gal(b1-3)]GalNAc
Outline: as §1

[33] = target: Neu5Ac(a2-3)Gal(b1-4)GlcNAc6S
Outline: as §1

[34] = target: Neu5Ac(a2-3)Gal(b1-4)[Fuc(a1-3)]GlcNAc
Outline: as §1

[35] = target: Neu5Ac(a2-3)Gal(b1-4)[Fuc(a1-3)]GlcNAc(b1-2)Man
Outline: as §1

[36] = target: Neu5Ac(a2-3)Gal(b1-4)[Fuc(a1-3)]GlcNAc(b1-3)Gal
Outline: as §1

[37] = target: Neu5Ac(a2-3)Gal(b1-4)[Fuc(a1-3)]GlcNAc(b1-3)Gal(b1-4)GlcNAc
Outline: as §1

[38] = target: Neu5Ac(a2-3)Gal(b1-4)[Fuc(a1-3)]GlcNAc(b1-3)Gal(b1-4)[Fuc(a1-3)]GlcNAc(b1-3)Gal(b1-4)[Fuc(a1-3)]GlcNAc
Outline: as §1

[39] = target: Neu5Ac(a2-3)Gal(b1-4)[Fuc(a1-3)]GlcNAc(b1-3)GalNAc
Outline: as §1

[40] = target: Neu5Ac(a2-3)Gal(b1-4)[Fuc(a1-3)]GlcNAc(b1-6)[Gal(b1-3)]GalNAc
Outline: as §1

[41] = target: Neu5Ac(a2-3)Gal(b1-4)[Fuc(a1-3)]GlcNAc(b1-6)[Neu5Ac(a2-3)Gal(b1-3)]GalNAc
Outline: as §1

[42] = target: Neu5Ac(a2-3)Gal(b1-4)[Fuc(a1-3)]GlcNAc6S
Outline: as §1

[43] = target: Neu5Ac(a2-3)Gal6S(b1-4)GlcNAc
Outline: as §1

[44] = target: Neu5Ac(a2-3)Gal6S(b1-4)[Fuc(a1-3)]GlcNAc
Outline: as §1

B1: PX9961KLbvu-535-38-535 (Bacteroides vulgatus) (protein)
chain: DKAYTDAESYTKGLHKIYSVWALSGQDGSSSSDISGLDAGNTALLRCWWTLQEQPTDEMKNAWNDAWCTEVNYMTWTTNKVEPIEGVYQRCMYIVALVNEFLKNIPNAPESIDKESYIAQARFNRAFAYYVLMDMFALPPFITEKNYSIEPAPLSREDLFNWIEAELNEIKPNLPSPRSEYGVADQAVASALLARMYLNAEIYTGKARYTECINACNEVIKAGYQLADNYADLFKADNGENPDTKKEIIYPIIFDGDKTQSWGMAAIIIGARGAEDKDVLLAHSGVDQGWAGFRATSNLVHLFDFQNDEEPKASEIQDKRGIFYDKGRSIDITSSVSGTFETEGWSVFKFSNLNSNGQPGKNTLWVDTDFPMFRLGDIYLMYAEAVARGGEGSKASAVEYINALRKRAYGDDKHNISENWLEENNFRNLLDERGRELYWEGIRRTDLVRFDLLTSGSYTWDFKGGINTGVGVNKRYNVYPIPVTDLTVNGNLQQNEGY
- glycan array binding signal (z-score) [1]: 1.01
- glycan array binding signal (z-score) [2]: 0.17
- glycan array binding signal (z-score) [3]: -0.139
- glycan array binding signal (z-score) [4]: -0.101
- glycan array binding signal (z-score) [5]: -0.184
- glycan array binding signal (z-score) [6]: -0.377
- glycan array binding signal (z-score) [7]: -0.578
- glycan array binding signal (z-score) (Neu5Ac(a2-3)Gal(b1-4)Glc): -0.637
- glycan array binding signal (z-score) [8]: -0.139
- glycan array binding signal (z-score) [9]: -0.477
- glycan array binding signal (z-score) [10]: -0.451
- glycan array binding signal (z-score) [11]: 0.024
- glycan array binding signal (z-score) [12]: 0.475
- glycan array binding signal (z-score) [13]: -0.154
- glycan array binding signal (z-score) [14]: -0.599
- glycan array binding signal (z-score) [15]: 0.424
- glycan array binding signal (z-score) [16]: 0.865
- glycan array binding signal (z-score) [17]: -0.043
- glycan array binding signal (z-score) [18]: -0.839
- glycan array binding signal (z-score) [19]: -0.662
- glycan array binding signal (z-score) [20]: -0.635
- glycan array binding signal (z-score) [21]: 0.428
- glycan array binding signal (z-score) [22]: -0.106
- glycan array binding signal (z-score) [23]: 1.01
- glycan array binding signal (z-score) [24]: -0.387
- glycan array binding signal (z-score) [25]: 0.429
- glycan array binding signal (z-score) [26]: -0.413
- glycan array binding signal (z-score) [27]: -0.754
- glycan array binding signal (z-score) [28]: -0.307
- glycan array binding signal (z-score) [29]: -1.09
- glycan array binding signal (z-score) [30]: -0.266
- glycan array binding signal (z-score) [31]: 0.057
- glycan array binding signal (z-score) [32]: -0.02
- glycan array binding signal (z-score) [33]: -0.381
- glycan array binding signal (z-score) [34]: -0.6
- glycan array binding signal (z-score) [35]: -0.352
- glycan array binding signal (z-score) [36]: -0.615
- glycan array binding signal (z-score) [37]: 0.02
- glycan array binding signal (z-score) [38]: 0.023
- glycan array binding signal (z-score) [39]: 0.19
- glycan array binding signal (z-score) [40]: 0.27
- glycan array binding signal (z-score) [41]: 1.17
- glycan array binding signal (z-score) [42]: -0.73
- glycan array binding signal (z-score) [43]: -0.013
- glycan array binding signal (z-score) [44]: 0.772
